Assay results from patent US20210009657A1 (THEACHON, published 2021).
These are yes or no findings as the source states them, for the method shown. Some entries that bind do so weakly or less than the wild type. Tags and fused reporters may be left off the sequences shown.

Protein sequences, listed by entry. Tags and fused reporters are not part of them. Residues count along the entry.
UniProt P16112, residues 20-675: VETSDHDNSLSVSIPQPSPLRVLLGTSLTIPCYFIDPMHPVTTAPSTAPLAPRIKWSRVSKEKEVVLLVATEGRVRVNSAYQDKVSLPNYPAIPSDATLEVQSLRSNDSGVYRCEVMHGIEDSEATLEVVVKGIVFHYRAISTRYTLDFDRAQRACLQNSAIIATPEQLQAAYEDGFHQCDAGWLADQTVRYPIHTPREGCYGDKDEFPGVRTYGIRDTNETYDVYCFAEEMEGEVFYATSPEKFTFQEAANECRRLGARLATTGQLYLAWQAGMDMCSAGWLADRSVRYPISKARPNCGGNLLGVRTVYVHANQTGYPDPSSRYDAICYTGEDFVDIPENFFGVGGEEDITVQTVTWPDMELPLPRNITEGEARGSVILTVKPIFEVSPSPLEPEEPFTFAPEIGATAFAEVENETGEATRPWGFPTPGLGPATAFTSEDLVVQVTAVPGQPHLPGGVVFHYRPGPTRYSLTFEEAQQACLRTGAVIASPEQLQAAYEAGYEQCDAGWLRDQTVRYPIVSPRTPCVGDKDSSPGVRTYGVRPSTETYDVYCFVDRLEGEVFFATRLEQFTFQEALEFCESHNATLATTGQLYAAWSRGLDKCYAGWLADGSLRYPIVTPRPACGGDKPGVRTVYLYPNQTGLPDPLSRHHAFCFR

Molecular target: Aggrecan (R&D systems #1220-PG-025) (UniProt P16112)
Test: ELISA, aggrecan coated on plate, detection with anti-FGFR3 antibody

B1: FLAG-sFGFR3_Del4-LK1-LK2 (other)
chain: DYKDDDDKLVDQIPAMGAPACALALCVAVAIVAGASSESLGTEQRVVGRAAEVPGPEPGQQEQLVFGSGDAVELSCPPPGGGPMGPTVWVKDGTGLVPSERVLVGPQRLQVLNASHEDSGAYSCRQRLTQRVLCHFSVRVTDAPSSGDDEDGEDEAEDTGVDTGAPYWTRPERMDKKLLAVPAANTVRFRCPAAGNPTPSISWLKNGREFRGEHRIGGIKLRHQQWSLVMESVVPSDRGNYTCVVENKFGSIRQTYTLDVLERSPHRPILQAGLPANQTAVLGSDVEFHCKVYSDAQPHIQWLKHVEVNGSKVGPDGTPYVTVLKVSLESNASMSSNTSGSGSGSGSGSGSGSVVFPYFPRLGRYNLNFHEAQQACLDQDAVIASFDQLYDAWRGGLDWCNAGWLSDGSVQYPITKPREPCGGQNTVPGVRNYGFWDKDKSRYDVFCFTSNFNGRFYYLIHPTKLTYDEAVQACLNDGAQIAKVGQIFAAWKILGYDRCDAGWLADGSVRYPISRPRRRCSPTEAAVRFVGFPDKKHKLYGVYCFRAYN
notes: Fusion of a soluble FGFR3 fragment with the LK1 and LK2 link domains of human HPLN1; Made in HEK 293 cells; also called FP; fusion protein
binding: binds
